Experimental data as given in US7459268B2, “Method for screening agent acting on cell wall” (Daiichi Pharmaceutical Co., Ltd., priority 2001, dated 2008).
Some entries share one result that the patent states for a list of compounds.

Tested on: AY-14 strain
Test: Molecular weight of released GFP by Western blotting after agent treatment
Format: cell-based, Saccharomyces cerevisiae
Conditions: agent alone
Experimental: Cells at the logarithmic growth phase were collected after inoculation to the liquid medium and culture at 30° C., and suspended in a fresh medium of the same type to prepare a cell suspension for inoculation. The cells were cultured at 30° C. Fluorescence intensity of the culture supernatant was measured (excitation=480 nm, emission=530 nm) by using ARVO sx (Wallac, Tokyo). The GFP releasing effect of the gene-disrupted strains was represented in terms of a difference with that of a non-gene-disrupted strain (AY-10u strain or AY12u strain). After the measurement of fluorescence intensity, the culture supernatants were concentrated by ultrafiltration. The concentrated supernatants were subjected to separation by SDS-PAGE and blotted on a PVDF membrane, and GFP was detected by using commercially available anti-GFP antibodies (rabbit IgG, Santa Cruz Biotechnology) to compare the molecular weights (Western blotting).
As agents confirmed to have a yeast cell wall synthesis inhibitory action, tunicamycin (TM, Funakoshi, Tokyo), aculeacin A (AC, Wako Pure Chemical Industries, Osaka) and staurosporine (SP, Boehringer Mannheim, Tokyo) were used. The AY-14 strain was used as a microorganism. […]

CN[C@@H]1C[C@H]2O[C@@](C)([C@@H]1OC)n1c3ccccc3c3c4c(c5c6ccccc6n2c5c31)C(=O)NC4 [SP, staurosporine]
lowering of molecular weight of released GFP: ≤ 10 kDa

Aculeacin A
increase of molecular weight of released GFP: ≤ 10 kDa
